## Cleaved PARP in drug-treated melanoma cells

Values as published with doi:10.1371/journal.pone.0140310, rounded.

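The test systems are human melanoma cell lines, treated with a pair of drugs for 72 h and then stained and imaged. The read-out is the fraction of cleaved-PARP-positive nuclei, in % of that fraction in the DMSO control; 200 means twice the control level of this apoptosis marker. Every drug was used at one fixed concentration, the higher of two screened. These are primary screening values without error estimates. Basal and induced levels differ widely between cell lines.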 Only some of the drugs and lines screened are listed, without regard to their results. An entry leaves out what has no value listed here.

Drug key:
OSU-03012, 5000 nM: NCC(=O)Nc1ccc(-n2nc(C(F)(F)F)cc2-c2ccc3c(ccc4ccccc43)c2)cc1
CX-4945, 2000 nM: O=C(O)c1ccc2c(c1)nc(Nc1cccc(Cl)c1)c1ccncc12
OSI-906, 2000 nM: C[C@]1(O)C[C@@H](c2nc(-c3ccc4ccc(-c5ccccc5)nc4c3)c3c(N)nccn32)C1
GSK650394, 800 nM: O=C(O)c1ccc(-c2c[nH]c3ncc(-c4ccccc4)cc23)cc1C1CCCC1
NVP-BEZ235, 20 nM: Cn1c(=O)n(-c2ccc(C(C)(C)C#N)cc2)c2c3cc(-c4cnc5ccccc5c4)ccc3ncc21
vatalanib, 10000 nM: Clc1ccc(Nc2nnc(Cc3ccncc3)c3ccccc23)cc1
T0901317, 7000 nM: O=S(=O)(c1ccccc1)N(CC(F)(F)F)c1ccc(C(O)(C(F)(F)F)C(F)(F)F)cc1
YM155, 2 nM: COCC[n+]1c2c(n(Cc3cnccn3)c1C)C(=O)c1ccccc1C2=O
KU-55933, 5000 nM: O=c1cc(-c2cccc3c2Sc2ccccc2S3)oc(N2CCOCC2)c1
PLX4720, 400 nM: CCCS(=O)(=O)Nc1ccc(F)c(C(=O)c2c[nH]c3ncc(Cl)cc23)c1F
BI-78D3, 1000 nM: O=c1[nH]nc(Sc2ncc([N+](=O)[O-])s2)n1-c1ccc2c(c1)OCCO2

For OSI-906 + KU-55933 the values were WM451Lu: 73.4; COLO 800: 166; G-361: 141; 501mel: 248; WM1716: 93.5.
For BI-78D3 + YM155 the values were WM451Lu: 221; COLO 800: 288; G-361: 67.2; WM1745: 75.2; WM1716: 172.
For NVP-BEZ235 + KU-55933 the values were WM451Lu: 72.1; COLO 800: 64.2; G-361: 175; 501mel: 107; WM1716: 29.8.
For YM155 + PLX4720 the values were WM451Lu: 1820; COLO 800: 80.9; G-361: 182; WM1745: 101; WM1716: 86.1.
For CX-4945 + BI-78D3 the values were WM451Lu: 88.9; COLO 800: 81.3; G-361: 159; WM1745: 128; WM1716: 280.
For NVP-BEZ235 + BI-78D3 the values were WM451Lu: 548; COLO 800: 140; G-361: 80.7; WM1745: 107; WM1716: 118.
For GSK650394 + PLX4720 the values were WM451Lu: 113; COLO 800: 81.7; G-361: 216; WM1745: 236; WM1716: 168.
For BI-78D3 + vatalanib the values were WM451Lu: 49.5; COLO 800: 109; G-361: 127; WM1745: 198; WM1716: 102.
For vatalanib + OSI-906 the values were WM451Lu: 99.6; COLO 800: 42.9; G-361: 97.1; WM1745: 164; WM1716: 196.
For T0901317 + CX-4945 the values were WM451Lu: 252; COLO 800: 154; G-361: 154; 501mel: 103; WM1716: 319.
For CX-4945 + KU-55933 the values were WM451Lu: 46.3; COLO 800: 213; G-361: 228; 501mel: 95.3; WM1716: 312.
For T0901317 + vatalanib the values were WM451Lu: 37.9; COLO 800: 261; G-361: 341; 501mel: 98.9; WM1716: 117.
For OSU-03012 + vatalanib the values were WM451Lu: 329; COLO 800: 966; G-361: 519; WM1745: 309; WM1716: 182.
For PLX4720 + BI-78D3 the values were WM451Lu: 206; COLO 800: 34.9; G-361: 141; WM1745: 93.4; WM1716: 50.9.
For KU-55933 + OSU-03012 the values were WM451Lu: 94.1; COLO 800: 65.0; G-361: 241; 501mel: 818; WM1745: 168; WM1716: 100.
For T0901317 + OSI-906 the values were WM451Lu: 87.3; COLO 800: 91.6; G-361: 135; 501mel: 76.1; WM1716: 37.4.
For YM155 + T0901317 the values were WM451Lu: 226; COLO 800: 254; G-361: 270; 501mel: 183; WM1745: 128; WM1716: 159.
For CX-4945 + YM155 the values were WM451Lu: 1050; COLO 800: 147; G-361: 207; WM1745: 117; WM1716: 127.
For CX-4945 + OSI-906 the values were WM451Lu: 328; COLO 800: 193; G-361: 119; WM1745: 179; WM1716: 244.
For OSU-03012 + T0901317 the values were WM451Lu: 162; COLO 800: 200; G-361: 223; 501mel: 8190; WM1745: 193; WM1716: 101.
For PLX4720 + OSI-906 the values were WM451Lu: 116; COLO 800: 268; G-361: 347; WM1745: 344; WM1716: 189.
For CX-4945 + vatalanib the values were WM451Lu: 84.4; COLO 800: 59.3; G-361: 323; WM1745: 115; WM1716: 253.
For GSK650394 + OSI-906 the values were WM451Lu: 115; COLO 800: 159; G-361: 118; WM1745: 108; WM1716: 40.2.
For PLX4720 + CX-4945 the values were WM451Lu: 455; COLO 800: 30.7; G-361: 402; WM1745: 133; WM1716: 554.
For NVP-BEZ235 + T0901317 the values were WM451Lu: 235; COLO 800: 48.6; G-361: 352; 501mel: 79.8; WM1716: 126.
For CX-4945 + GSK650394 the values were WM451Lu: 65.3; COLO 800: 81.7; G-361: 272; WM1745: 138; WM1716: 67.3.
For GSK650394 + BI-78D3 the values were WM451Lu: 39.0; COLO 800: 135; G-361: 152; WM1745: 84.4; WM1716: 46.6.
For KU-55933 + YM155 the values were WM451Lu: 413; COLO 800: 25.8; G-361: 304; 501mel: 362; WM1745: 144; WM1716: 152.
For OSI-906 + BI-78D3 the values were WM451Lu: 37.3; COLO 800: 94.4; G-361: 68.9; WM1745: 132; WM1716: 116.
For PLX4720 + T0901317 the values were WM451Lu: 189; COLO 800: 81.7; G-361: 367; 501mel: 43.7; WM1716: 159.
For GSK650394 + KU-55933 the values were WM451Lu: 161; COLO 800: 167; G-361: 153; 501mel: 91.0; WM1745: 114; WM1716: 105.
For KU-55933 + BI-78D3 the values were WM451Lu: 74.7; COLO 800: 110; G-361: 253; 501mel: 142; WM1716: 138.
For vatalanib + KU-55933 the values were WM451Lu: 106; COLO 800: 81.7; G-361: 221; 501mel: 189; WM1716: 113.
For YM155 + OSU-03012 the values were WM451Lu: 277; COLO 800: 379; G-361: 110; WM1745: 110; WM1716: 201.
For GSK650394 + OSU-03012 the values were WM451Lu: 71.8; COLO 800: 314; G-361: 160; WM1745: 80.0; WM1716: 88.6.
For GSK650394 + T0901317 the values were WM451Lu: 53.1; COLO 800: 90.8; G-361: 41.5; 501mel: 105; WM1745: 158; WM1716: 162.
For OSU-03012 + OSI-906 the values were WM451Lu: 113; COLO 800: 520; G-361: 330; WM1745: 320; WM1716: 67.7.
For CX-4945 + OSU-03012 the values were WM451Lu: 309; COLO 800: 100; G-361: 247; WM1745: 98.1; WM1716: 725.
For OSU-03012 + PLX4720 the values were WM451Lu: 116; COLO 800: 94.5; G-361: 355; WM1745: 122; WM1716: 244.